Source: patent US20230227838A1, “ENHANCED CELL SURVIVAL AGAINST BIOTIC AND ABIOTIC STRESSES THROUGH SALICYLICK ACID-INDUCED NPR1 CONDENSATES” (priority 2020, published 2023)

B1: AT5G24530 (protein, UniProt Q9FLV0 1-341, looked up)
Protein DOWNY MILDEW …: MAAKLISTGFRHTTLPENYVRPISDRPRLSEVSQLEDFPLIDLSSTDRSFLIQQIHQACARFGFFQVINHGVNKQIIDEMVSVAREFFSMSMEEKMKLYSDDPTKTTRLSTSFNVKKEEVNNWRDYLRLHCYPIHKYVNEWPSNPPSFKEIVSKYSREVREVGFKIEELISESLGLEKDYMKKVLGEQGQHMAVNYYPPCPEPELTYGLPAHTDPNALTILLQDTTVCGLQILIDGQWFAVNPHPDAFVINIGDQLQALSNGVYKSVWHRAVTNTENPRLSVASFLCPADCAVMSPAKPLWEAEDDETKPVYKDFTYAEYYKKFWSRNLDQEHCLENFLNN
B2: AT1G16890 (protein, UniProt Q9FZ48 1-153, looked up)
Ubiquitin-conjugating enzyme …: MANSNLPRRIIKETQRLLSEPAPGISASPSEENMRYFNVMILGPTQSPYEGGVFKLELFLPEEYPMAAPKVRFLTKIYHPNIDKLGRICLDILKDKWSPALQIRTVLLSIQALLSAPNPDDPLSENIAKHWKSNEAEAVETAKEWTRLYASGA
B3: AT2G30110 (protein)
chain: MLHKRASEANDKNDNTIIGSDLASSKKRRIDFTESSSDKSSSILASGSSRGFHGDSVVQQIDMAFGNSNRQEIDEDLHSRQLAVYGRETMRRLFASNVLISGMHGLGAEIAKNLILAGVKSVTLHDERVVELWDLSSNFVFSEDDVGKNRADASVQKLQDLNNAVVVSSLTKSLNKEDLSGFQVVVFSDISMERAIEFDDYCHSHQPPIAFVKADVRGLFGSVFCDFGPEFAVLDVDGEEPHTGIIASISNENQAFISCVDDERLEFEDGDLVVFSEVEGMTELNDGKPRKIKSTRPYSFTLDEDTTNYGTYVKGGIVTQVKQPKLLNFKPLREALKDPGDFLFSDFSKFDRPPLLHLAFQALDHFKAEAGRFPVAGSEEDAQKLISIATAINTGQGDLKVENVDQKLLRHFSFGAKAVLNPMAAMFGGIVGQEVVKACSGKFHPLFQFFYFDSVESLPSEPVDSSDFAPRNSRYDAQISVFGAKFQKKLEDAKVFTVGSGALGCEFLKNLALMGVSCGSQGKLTVTDDDIIEKSNLSRQFLFRDWNIGQAKSTVAASAAAVINPRFNIEALQNRVGAETENVFDDAFWENLTVVVNALDNVNARLYVDSRCLYFQKPLLESGTLGTKCNTQSVIPHLTENYGASRDPPEKQAPMCTVHSFPHNIDHCLTWARSEFEGLLEKTPAEVNAYLSSPVEYTNSMMSAGDAQARDTLERIVECLEKEKCETFQDCLTWARLRFEDYFVNRVKQLIYTFPEDAATSTGAPFWSAPKRFPRPLQYSSSDPSLLNFITATAILRAETFGIPIPEWTKNPKEAAEAVDRVIVPDFEPRQDAKIVTDEKATTLTTASVDDAAVIDDLIAKIDQCRHNLSPDFRMKPIQFEKDDDTNYHMDVIAGLANMRARNYSIPEVDKLKAKFIAGRIIPAIATSTAMATGLVCLELYKVLDGGHKVEAYRNTFANLALPLFSMAEPLPPKVVKHRDMAWTVWDRWVLKGNPTLREVLQWLEDKGLSAYSISCGSCLLFNSMFTRHKERMDKKVVDLARDVAKVELPPYRNHLDVVVACEDEDDNDVDIPLVSIYFR
B4: AT4G21100 (protein)
chain: MSVWNYAVTAQKPTCVTHSCVGNFTSPQELNLIVAKSTRIEIHLLSPQGLQTILDVPLYGRIATMELFRPHGEAQDFLFVATERYKFCVLQWDYESSELITRAMGDVSDRIGRPTDNGQIGIIDPDCRVIGLHLYDGLFKVIPFDNKGQLKEAFNIRLEELQVLDIKFLYGCTKPTIAVLYQDNKDARHVKTYEVSLKDKNFVEGPWSQNNLDNGADLLIPVPSPLCGVLIIGEETIVYCSANAFKAIPIRPSITKAYGRVDLDGSRYLLGDHAGLIHLLVITHEKEKVTGLKIELLGETSIASSISYLDNAVVFVGSSYGDSQLIKLNLQPDAKGSYVEILEKYVNLGPIVDFCVVDLERQGQGQVVTCSGAYKDGSLRIVRNGIGINEQASVELQGIKGMWSLKSSIDEAFDTFLVVSFISETRILAMNIEDELEETEIEGFLSEVQTLFCHDAVYNQLVQVTSNSVRLVSSTTRELRNKWDAPAGFSVNVATANASQVLLATGGGHLVYLEIGDGTLTEVKHVLLEYEVSCLDINPIGDNPNYSQLAAVGMWTDISVRIFVLPDLTLITKEELGGEIIPRSVLLCAFEGISYLLCALGDGHLLNFQLDTSCGKLRDRKKVSLGTRPITLRTFSSKSATHVFAASDRPAVIYSNNKKLLYSNVNLKEVSHMCPFNSAAFPDSLAIAREGELTIGTIDDIQKLHIRTIPIGEHARRICHQEQTRTFAISCLRNEPSAEESESHFVRLLDAQSFEFLSSYPLDAFECGCSILSCSFTDDKNVYYCVGTAYVLPEENEPTKGRILVFIVEEGRLQLITEKETKGAVYSLNAFNGKLLASINQKIQLYKWMLRDDGTRELQSECGHHGHILALYVQTRGDFIAVGDLMKSISLLIYKHEEGAIEERARDYNANWMTAVEILNDDIYLGTDNCFNIFTVKKNNEGATDEERARMEVVGEYHIGEFVNRFRHGSLVMKLPDSDIGQIPTVIFGTVSGMIGVIASLPQEQYAFLEKLQTSLRKVIKGVGGLSHEQWRSFNNEKRTAEAKGYLDGDLIESFLDLSRGKMEEISKGMDVQVEELCKRVEELTRLH
B5: AT5G49570 (protein, UniProt Q9FGY9 1-721, looked up)
Peptide-N(4)-(N-acetyl-beta-gl …: MVARKFVVRHEDSSFDVDYNTEDGLEVLRFLIFSLTLVPPEEQKIVAEDDNRLVSDESDLASLSERLRLVSVGEDSVENSDAEMLKSDEELARMLQAEEDAIMFQQFVAARDNGEFEGRIRPYVSQVLMYEDPVRQDAARKTVPKDELEEKALVSLAKEGNFEPSKEERDYAFLLQLLFWFKKSFRWVNEPPCDFCGNKTIGQGMGNPLTSELAYGANRVEIYRCTMCPTTTRFPRYNDPLKLVETKKGRCGEWANCFTLYCRTFGYDSRLIMDFTDHVWTECYSHSLKRWIHLDPCEGVYDKPMLYEKGWNKKLNYVIAISKDGVCDVTKRYTKKWHEVLSRRTLTTESSLQDGLRTLTRERRRSLMFESLSKLELRDRNEQEELERNLHSADNASVSLPGRQSGDREWRIMRSEFGSDENSSVSSSSCPVRKCVDDHVTNIYDSFLPILTQFVEDGLPVARTNEVLKMIKQVLVDLKNAPYKTRKARLTLDSDNSSSFPEQFLPALGDLLLALSLKSERDTNGKSVTISVDGKLTKTAIALPVALDALRELVADLSKYQNLNKDSLSFPLVKQNRVCSGSVLASGEELPSGIATAAFDGIQESKWEEPNGAKGCWIVYKTLYNQMHQLIAYELMSANDAPERDPKDWILEGSNDGGSTWCVLDKQTSQVFEERFQRKSYKITTPGFQANLFRFRFLSVRDVNSTSRLQLGSIDLYRSHQ
B6: AT2G02560 (protein)
chain: ANLQVSGILEKFQMTGKDKDYRYMATSDLLNELNKDSFKIDLDLEVRLSSIILQQLDDVAGDVSGLAVKCLAPLVKKVGEERIVEMTNKLCDKLLHGKDQHRDTASIALRTVVAQIAPTLAPSILVTLTPQMIGGISGQGMSSGIKCECLEIMCDVVQKYGSLMTDDHEKLLNTLLLQLGCNQATVRKKTVTCIASLASSLSDDLLAKATVEVVKNLSNRNAKSEITRTNIQMIGALCRAVGYRFGTHLGNTVPVLINYCTSASENDEELREYSLQALESFLLRCPRDISPYCDEILNLTLEYISYDPNFTDNMEEDTDNETLEDEEDDESANEYTDDEDASWKVRRAAAKCLAGLIVSRSEMLTKVYQEACPKLIDRFKEREENVKMDVFNTFIDLLRQTGNVTKGQTDTDESSPKWLLKQEVSKIVKSINRQLREKSVKTKVGAFSVLRELVVVLPDCLADHIGSLVPGIERALNDKSSTSNLKIEALVFTKLVLASHAPPVFHPYIKALSSPVLAAVGERYYKVTAEALRVCGELVRVVRPSTAGMGFDFKPFVHPIYNAIMSRLTNQDQDQEVKECAITCMGLVISTFGDQLRAELPSCLPVLVDRMGNEITRLTAVKAFSVIATSPLHINLSCVLDHLIAELTGFLRKANRVLRQATLITMNTLVTAYGDKIGSEAYEVILVELSSLISVSDLHMTALALELCCTLMTGKSCSENISLAVRNKVLPQALTLVKSPLLQGQALLDLQKFFEALVYHANTSFYTLLESLLSCAKPSPQSGGVPKQALYSIAQCVAVLCLAAGDKNCSSTVKMLMEILKDDSGTNSAKQHLALLSLGEIGRRKDLSAHAGIETIVIESFQSPFEEIKSAASYALGNIAVGNLSNYLPFILDQIDNQQKKQYILLHSLKEVIVRQSVDKADFQNSSVEKILALLFNHCESEEEGVRNVVAECLGKMALIEPEKLVPALQVRTTSPAAFTRATVVTAVKYSVVERPEKLDEIIFPQISSFLMLIKDGDRHVRRAAVSALSTFAHYKPNLIKGLLPELLPLLYDQTVIKKELIRTVDLGPFKHVVDDGLELRKAAFECVFTLVDSCLDQVNPSSFIVPFLKSGLEDHYDLKMLCHLILSLLADKCPSAVLAVLDSLVEPLHKTISFKPKQDAVKQEHDRNEDMIRSALRAISSLDRINGVDYSHKFKGLMGDMKRSVPLWEKFQTIRNE
B7: AT3G48990 (protein, UniProt Q9SMT7 1-514, looked up)
Oxalate--CoA ligase: MDSDTLSGLLENVAKKFPDRRALSVSGKFNLTHARLHDLIERAASRLVSDAGIKPGDVVALTFPNTVEFVIMFLAVIRARATAAPLNAAYTAEEFEFYLSDSDSKLLLTSKEGNAPAQEAASKLKISHVTATLLDAGSDLVLSVADSDSVVDSATELVNHPDDGALFLHTSGTTSRPKGVPLTQLNLASSVKNIKAVYKLTESDSTVIVLPLFHVHGLLAGLLSSLGAGAAVTLPAAGRFSATTFWPDMKKYNATWYTAVPTIHQIILDRHASHPETEYPKLRFIRSCSASLAPVILSRLEEAFGAPVLEAYAMTEATHLMSSNPLPEEGPHKPGSVGKPVGQEMAILNEKGEIQEPNNKGEVCIRGPNVTKGYKNNPEANKAGFEFGWFHTGDIGYFDTDGYLHLVGRIKELINRGGEKISPIEVDAVLLTHPDVSQGVAFGVPDEKYGEEINCAVIPREGTTVTEEDIKAFCKKNLAAFKVPKRVFITDNLPKTASGKIQRRIVAQHFLEKP
B8: AT4G26120 (protein)
chain: MATTTTTTTARFSDSYEFSNTSGNSFFAAESSLDYPTEFLTPPEVSALKLLSNCLESVFDSPETFYSDAKLVLAGGREVSFHRCILSARIPVFKSALATVKEQKSSTTVKLQLKEIARDYEVGFDSVVAVLAYVYSGRVRSPPKGASACVDDDCCHVACRSKVDFMVEVLYLSFVFQIQELVTLYERQFLEIVDKVVVEDILVIFKLDTLCGTTYKKLLDRCIEIIVKSDIELVSLEKSLPQHIFKQIIDIREALCLEPPKLERHVKNIYKALDSDDVELVKMLLLEGHTNLDEAYALHFAIAHCAVKTAYDLLELELADVNLRNPRGYTVLHVAAMRKEPKLIISLLMKGANILDTTLDGRTALVIVKRLTKADDYKTSTEDGTPSLKGGLCIEVLEHEQKLEYLSPIEASLSLPVTPEELRMRLLYYENRVALARLLFPVETETVQGIAKLEETCEFTASSLEPDHHIGEKRTSLDLNMAPFQIHEKHLSRLRALCKTVELGKRYFKRCSLDHFMDTEDLNHLASVEEDTPEKRLQKKQRYMELQETLMKTFSEDKEECGKSSTPKPTSAVRSNRKLSHRRLKVDKRDFLKRPYGNGD

System: sim3-GFP
Assay: Quantitative LC-MS/MS of sim3-GFP interactome (SINC components)
Design: species or system Arabidopsis thaliana
Settings: protein enrichment in the sim3-GFP interactome (SINC components), SA-treated samples versus mock

Row | Molecule | Normalized Fold Change: SA vs Mock
1 | B1 | 15.58
2 | B2 | 3.951
3 | B3 | 3.322
4 | B4 | 1615
5 | B5 | 3.134
6 | B6 | 42.1
7 | B7 | 2.006
8 | B8 | 16.7
